By UniProt entry, the sequences of proteins in these tests, tags left out. Where a name states a change or a piece, a line headed by the entry shows the natural chain unless it says otherwise.
UniProt Q9SGH2: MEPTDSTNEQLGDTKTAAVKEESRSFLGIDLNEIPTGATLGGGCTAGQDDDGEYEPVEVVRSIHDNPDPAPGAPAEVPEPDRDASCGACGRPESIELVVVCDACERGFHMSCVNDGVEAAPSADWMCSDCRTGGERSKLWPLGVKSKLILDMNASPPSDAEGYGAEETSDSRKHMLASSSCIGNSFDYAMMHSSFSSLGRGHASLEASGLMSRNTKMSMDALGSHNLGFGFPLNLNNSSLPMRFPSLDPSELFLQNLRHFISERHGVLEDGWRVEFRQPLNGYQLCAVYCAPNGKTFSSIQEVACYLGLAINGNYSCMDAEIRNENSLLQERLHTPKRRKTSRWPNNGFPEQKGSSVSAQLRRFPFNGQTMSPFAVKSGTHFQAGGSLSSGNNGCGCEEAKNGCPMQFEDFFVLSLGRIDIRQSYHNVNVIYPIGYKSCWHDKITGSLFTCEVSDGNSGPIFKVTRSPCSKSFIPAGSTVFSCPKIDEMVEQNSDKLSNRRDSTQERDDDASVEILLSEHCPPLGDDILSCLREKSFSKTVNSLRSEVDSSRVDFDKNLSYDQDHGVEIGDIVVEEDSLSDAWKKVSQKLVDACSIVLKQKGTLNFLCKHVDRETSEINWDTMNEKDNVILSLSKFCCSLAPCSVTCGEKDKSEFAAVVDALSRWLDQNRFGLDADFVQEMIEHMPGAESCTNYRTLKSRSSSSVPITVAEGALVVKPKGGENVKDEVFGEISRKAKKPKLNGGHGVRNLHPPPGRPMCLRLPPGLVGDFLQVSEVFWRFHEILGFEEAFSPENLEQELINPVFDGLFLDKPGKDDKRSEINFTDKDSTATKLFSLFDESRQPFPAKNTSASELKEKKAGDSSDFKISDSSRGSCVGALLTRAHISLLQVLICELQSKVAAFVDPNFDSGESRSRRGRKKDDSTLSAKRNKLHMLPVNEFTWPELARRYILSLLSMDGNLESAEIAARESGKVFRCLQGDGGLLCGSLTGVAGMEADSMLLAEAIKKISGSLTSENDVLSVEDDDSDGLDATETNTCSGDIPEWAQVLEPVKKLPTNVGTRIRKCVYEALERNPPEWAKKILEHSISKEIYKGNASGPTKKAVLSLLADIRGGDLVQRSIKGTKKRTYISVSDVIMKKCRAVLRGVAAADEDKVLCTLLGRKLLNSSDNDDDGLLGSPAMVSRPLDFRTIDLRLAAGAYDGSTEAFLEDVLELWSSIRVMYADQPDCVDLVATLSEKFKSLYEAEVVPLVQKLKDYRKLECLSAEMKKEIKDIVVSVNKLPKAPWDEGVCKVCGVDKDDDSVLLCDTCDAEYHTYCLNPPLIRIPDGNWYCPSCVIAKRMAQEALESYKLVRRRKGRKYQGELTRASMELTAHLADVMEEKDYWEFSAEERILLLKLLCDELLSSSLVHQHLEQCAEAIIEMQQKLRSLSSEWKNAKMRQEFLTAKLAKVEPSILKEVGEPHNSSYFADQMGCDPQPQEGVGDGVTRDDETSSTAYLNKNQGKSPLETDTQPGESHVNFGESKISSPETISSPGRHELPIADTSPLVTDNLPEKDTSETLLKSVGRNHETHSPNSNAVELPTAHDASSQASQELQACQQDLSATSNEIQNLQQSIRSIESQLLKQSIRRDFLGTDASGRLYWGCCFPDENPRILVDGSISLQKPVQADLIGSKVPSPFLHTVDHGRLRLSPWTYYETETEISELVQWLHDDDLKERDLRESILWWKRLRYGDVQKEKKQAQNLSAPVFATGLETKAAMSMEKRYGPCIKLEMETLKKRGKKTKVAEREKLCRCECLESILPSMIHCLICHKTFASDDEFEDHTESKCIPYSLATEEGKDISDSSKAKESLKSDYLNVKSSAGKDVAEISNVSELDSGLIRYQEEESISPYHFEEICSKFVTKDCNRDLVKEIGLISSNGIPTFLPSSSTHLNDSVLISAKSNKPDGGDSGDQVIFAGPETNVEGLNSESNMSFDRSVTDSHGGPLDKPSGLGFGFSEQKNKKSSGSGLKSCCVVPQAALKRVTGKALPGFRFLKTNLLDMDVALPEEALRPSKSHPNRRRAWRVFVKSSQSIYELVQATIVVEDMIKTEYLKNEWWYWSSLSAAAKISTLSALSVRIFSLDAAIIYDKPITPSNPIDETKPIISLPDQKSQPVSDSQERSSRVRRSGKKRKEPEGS
UniProt Q9FJW0: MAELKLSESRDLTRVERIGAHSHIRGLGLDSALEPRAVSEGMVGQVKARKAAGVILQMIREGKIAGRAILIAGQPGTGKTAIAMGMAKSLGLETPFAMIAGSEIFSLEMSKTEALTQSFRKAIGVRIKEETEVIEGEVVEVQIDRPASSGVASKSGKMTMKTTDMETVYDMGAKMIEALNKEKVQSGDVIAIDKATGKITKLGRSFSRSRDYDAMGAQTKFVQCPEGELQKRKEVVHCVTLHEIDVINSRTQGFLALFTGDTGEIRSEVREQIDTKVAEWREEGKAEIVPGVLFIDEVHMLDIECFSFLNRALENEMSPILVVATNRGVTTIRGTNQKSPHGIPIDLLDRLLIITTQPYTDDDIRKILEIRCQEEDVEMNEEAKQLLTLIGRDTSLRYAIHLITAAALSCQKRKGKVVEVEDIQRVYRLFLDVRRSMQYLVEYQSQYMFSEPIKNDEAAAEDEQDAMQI
UniProt F4JY24: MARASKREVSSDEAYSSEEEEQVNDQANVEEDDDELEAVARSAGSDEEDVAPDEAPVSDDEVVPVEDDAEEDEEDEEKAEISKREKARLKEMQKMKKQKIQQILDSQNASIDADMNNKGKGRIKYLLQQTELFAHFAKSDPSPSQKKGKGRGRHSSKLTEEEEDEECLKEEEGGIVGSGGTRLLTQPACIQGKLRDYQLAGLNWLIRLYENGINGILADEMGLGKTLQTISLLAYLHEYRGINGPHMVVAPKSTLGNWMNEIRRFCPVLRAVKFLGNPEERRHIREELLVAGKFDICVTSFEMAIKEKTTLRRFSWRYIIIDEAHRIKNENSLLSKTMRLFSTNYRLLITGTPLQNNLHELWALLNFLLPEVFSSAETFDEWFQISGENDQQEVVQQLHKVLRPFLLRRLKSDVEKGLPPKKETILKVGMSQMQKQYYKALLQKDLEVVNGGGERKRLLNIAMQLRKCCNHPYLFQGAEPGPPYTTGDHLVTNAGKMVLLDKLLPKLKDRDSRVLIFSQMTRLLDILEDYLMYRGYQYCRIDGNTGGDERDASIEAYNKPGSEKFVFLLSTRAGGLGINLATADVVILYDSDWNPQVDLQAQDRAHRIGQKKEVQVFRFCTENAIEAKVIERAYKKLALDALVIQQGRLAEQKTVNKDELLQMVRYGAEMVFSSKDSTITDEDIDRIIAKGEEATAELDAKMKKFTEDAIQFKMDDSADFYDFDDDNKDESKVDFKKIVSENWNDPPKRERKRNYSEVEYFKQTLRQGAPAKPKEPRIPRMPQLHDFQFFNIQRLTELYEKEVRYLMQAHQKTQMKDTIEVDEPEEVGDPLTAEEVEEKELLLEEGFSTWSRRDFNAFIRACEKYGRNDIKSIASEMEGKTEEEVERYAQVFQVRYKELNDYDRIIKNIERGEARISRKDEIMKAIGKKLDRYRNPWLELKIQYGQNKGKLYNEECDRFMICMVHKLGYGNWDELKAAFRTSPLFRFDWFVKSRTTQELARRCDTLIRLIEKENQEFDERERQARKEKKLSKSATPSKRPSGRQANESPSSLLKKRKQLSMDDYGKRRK
UniProt Q8RWY3: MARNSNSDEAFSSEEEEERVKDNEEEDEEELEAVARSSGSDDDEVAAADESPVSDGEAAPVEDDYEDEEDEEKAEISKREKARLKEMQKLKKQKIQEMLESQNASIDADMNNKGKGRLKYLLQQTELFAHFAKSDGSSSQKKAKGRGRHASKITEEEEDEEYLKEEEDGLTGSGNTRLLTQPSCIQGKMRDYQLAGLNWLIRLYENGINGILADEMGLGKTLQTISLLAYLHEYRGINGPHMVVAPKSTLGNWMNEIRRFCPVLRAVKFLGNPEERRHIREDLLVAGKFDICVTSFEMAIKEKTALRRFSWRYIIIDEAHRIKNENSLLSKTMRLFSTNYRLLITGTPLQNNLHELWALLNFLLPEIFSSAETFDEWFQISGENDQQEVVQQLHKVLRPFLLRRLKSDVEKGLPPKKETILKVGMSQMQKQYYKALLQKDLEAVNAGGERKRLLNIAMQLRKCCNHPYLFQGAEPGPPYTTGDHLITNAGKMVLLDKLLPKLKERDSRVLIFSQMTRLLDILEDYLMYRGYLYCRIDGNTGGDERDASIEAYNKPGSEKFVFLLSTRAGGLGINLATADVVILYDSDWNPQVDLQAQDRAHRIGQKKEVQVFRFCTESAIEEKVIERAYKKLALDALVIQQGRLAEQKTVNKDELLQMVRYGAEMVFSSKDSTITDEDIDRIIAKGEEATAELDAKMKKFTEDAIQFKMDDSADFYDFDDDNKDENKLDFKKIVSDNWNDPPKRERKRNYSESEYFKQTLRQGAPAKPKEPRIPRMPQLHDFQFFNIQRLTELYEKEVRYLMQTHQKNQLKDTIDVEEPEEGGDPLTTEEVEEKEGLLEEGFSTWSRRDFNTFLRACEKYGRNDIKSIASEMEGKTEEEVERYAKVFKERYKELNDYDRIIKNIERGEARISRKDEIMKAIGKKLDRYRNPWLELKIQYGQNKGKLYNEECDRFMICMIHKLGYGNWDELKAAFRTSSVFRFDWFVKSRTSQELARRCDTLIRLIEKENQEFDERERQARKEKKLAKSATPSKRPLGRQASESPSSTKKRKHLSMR
UniProt Q9FMR9: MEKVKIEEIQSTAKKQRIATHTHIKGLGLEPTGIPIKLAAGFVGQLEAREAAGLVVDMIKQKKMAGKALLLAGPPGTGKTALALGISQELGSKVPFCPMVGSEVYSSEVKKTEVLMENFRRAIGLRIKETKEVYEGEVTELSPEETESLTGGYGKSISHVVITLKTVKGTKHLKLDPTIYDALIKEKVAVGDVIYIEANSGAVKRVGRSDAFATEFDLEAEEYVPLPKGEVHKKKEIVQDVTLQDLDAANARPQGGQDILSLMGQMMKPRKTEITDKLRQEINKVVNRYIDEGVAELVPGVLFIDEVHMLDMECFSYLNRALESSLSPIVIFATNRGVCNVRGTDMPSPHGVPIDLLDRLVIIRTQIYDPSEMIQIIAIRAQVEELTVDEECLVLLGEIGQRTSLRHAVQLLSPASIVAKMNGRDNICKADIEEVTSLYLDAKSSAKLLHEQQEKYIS

According to article PMC6659704:

T1: ARP6-3xFLAG (Arabidopsis) (UniProt Q8LGE3)
T1 sequence: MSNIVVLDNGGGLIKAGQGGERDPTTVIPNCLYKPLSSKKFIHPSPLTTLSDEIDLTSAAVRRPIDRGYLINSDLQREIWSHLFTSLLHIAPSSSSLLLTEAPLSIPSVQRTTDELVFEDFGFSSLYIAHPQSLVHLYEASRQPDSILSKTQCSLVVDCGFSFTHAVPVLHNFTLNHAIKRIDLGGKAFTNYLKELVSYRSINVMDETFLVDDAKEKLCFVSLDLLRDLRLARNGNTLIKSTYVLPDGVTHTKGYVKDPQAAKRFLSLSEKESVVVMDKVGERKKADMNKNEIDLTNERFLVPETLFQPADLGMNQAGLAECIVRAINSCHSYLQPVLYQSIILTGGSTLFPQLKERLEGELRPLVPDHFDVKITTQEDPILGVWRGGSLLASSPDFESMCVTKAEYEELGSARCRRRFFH

T2: ARP6-9xMYC (Arabidopsis) (UniProt Q8LGE3)
T2 sequence: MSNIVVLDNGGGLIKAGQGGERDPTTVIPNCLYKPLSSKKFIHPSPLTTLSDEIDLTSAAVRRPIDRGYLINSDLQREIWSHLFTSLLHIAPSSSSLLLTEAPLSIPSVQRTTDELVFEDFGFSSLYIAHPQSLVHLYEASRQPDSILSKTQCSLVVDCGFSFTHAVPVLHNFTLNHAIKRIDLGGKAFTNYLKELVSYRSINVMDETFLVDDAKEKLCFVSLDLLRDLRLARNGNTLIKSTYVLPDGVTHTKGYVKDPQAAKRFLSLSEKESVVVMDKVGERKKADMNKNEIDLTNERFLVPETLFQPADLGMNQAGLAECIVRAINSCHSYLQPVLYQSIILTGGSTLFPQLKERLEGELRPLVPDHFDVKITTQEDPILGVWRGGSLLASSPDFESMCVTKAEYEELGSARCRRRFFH


How the values were obtained:
MBD9-9xMYC (Arabidopsis) = MBD9-9xMYC (Arabidopsis) (UniProt Q9SGH2); experiment: affinity purification with mass spectrometry; MBD9-9xMyc line, flower lysate, monoclonal 9E10 coupled to magnetic beads; six washes with IP buffer at 4 °C; eluted with 8 M urea in 50 mM Tris pH 8.5; wild type as control
[1] = molecular target: T1, ARP6-3xFLAG (Arabidopsis); experiment: affinity purification with mass spectrometry; anti-FLAG M2 magnetic beads in lysate of ~10 g flowers of ARP6-3xFLAG (T3) or MBD9-3xFLAG (T4) lines, Col-0 as negative control; IP buffer, 4 °C, 2 h; eluted with 3X FLAG peptides in TBS, TCA precipitated
[2] = molecular target: MBD9-3xFLAG (Arabidopsis) (UniProt Q9SGH2); experiment: as above
ARP6-9xMYC (Arabidopsis) = molecular target: T2, ARP6-9xMYC (Arabidopsis); experiment: affinity purification with mass spectrometry; ARP6-9xMyc line, flower lysate, monoclonal 9E10 coupled to magnetic beads; six washes with IP buffer at 4 °C; proteins released by 3C cleavage overnight at 5 °C; wild type as control

Molecule	binding (MBD9-9xMYC (Arabidopsis))	binding [1]	binding [2]	binding (ARP6-9xMYC (Arabidopsis))
AL4 (protein, UniProt O81488 1-255) MEAGGAYNPRTVEEVFRDFKGRRAGMIKALTTDVQEFFRLCDPEKENLCLYGHPNEHWEVNLPAEEVPPELPEPVLGINFARDGMAEKDWLSLVAVHSDAWLLAVAFFFGARFGFDKADRKRLFNMVNDLPTIFEVVAGTAKKQGKDKSSVSNNSSNRSKSSSKRGSESRAKFSKPEPKDDEEEEEEGVEEEDEDEQGETQCGACGESYAADEFWICCDLCEMWFHGKCVKITPARAEHIKQYKCPSCSNKRARS	–	–	–	binds
AL5 (protein, UniProt Q5XEM9 1-260) MEGGTAHYSPRTVEEVFRDFKGRRAGIIQALTTDVEDFFQQCDPEKQNLCLYGFPNEVWEVNLPAEEVPPELPEPALGINFARDGMQERNWLSLVAVHSDAWLLSVSFYFGSRFGFDRADRKRLFSMINEVPTVYEVVTGNAEKQTKEMPSSANQNGNRSKSNSKMRGLESKSSKTIHAKDEEEGLELEEGEEEEDEDEDEHGETLCGACGDNYASDEFWICCDMCEKWFHGECVKITPARAEHIKHYKCPTCSNKRARP	–	binds	–	binds
ACTIN-RELATED PROTEIN 4 (protein, UniProt Q84M92 1-441) MYGGDEVSAIVVDLGSHTCKAGYAGEDAPKAVFPSVIGAVDGVEAMDVDVDSTKTNSNSEDSKTESEKEKSKRKLYVGSQAMSYRRDHMEVLSPIKDGIVSDWDLVDNIWEHAFKSCLMIDPTEHPMLLAEPPLNTQQQREKAAELMFEKYKVPALFMAKNPVLTSFATGRATSLVVDCGGGSTTISPVHDGYVLQKAVVSSPLGGEFLTDCLLKSLESKGIKIRPRYSFKRKEVRAGEFQVEDVDIPDTTESYKLFCQRMIVGDIKDSICRVPDTPYDDKSYSNIPTTSYELPDGQTLEIGADRFKVPDVMFNPSIVQTIPGMEKYAEMIPSVRGLPHMVMESINKCDVDIRRELYSSILLAGGTSSMQQLKERLEKDLIEESPHSARVKVLASGNTTERRFSVWIGGSILASLGSFQQMWFSKSEYEEHGASYIQRKCP	binds	binds	binds	binds
AL6 (protein, UniProt Q8S8M9 1-256) MEGITHPIPRTVEEVFSDFRGRRAGLIKALTNDMVKFYQTCDPEKENLCLYGLPNETWEVNLPVEEVPPELPEPALGINFARDGMQEKDWVSLVAVHSDSWLLSVAFYFGARFGFGKNERKRLFQMINELPTIFEVVSGNAKQSKDLSVNNNNSKSKPSGVKSRQSESLSKVAKMSSPPPKEEEEEEDESEDESEDDEQGAVCGACGDNYGTDEFWICCDACEKWFHGKCVKITPAKAEHIKHYKCPTCSNKRARP	binds	binds	–	binds
AL7 (protein, UniProt Q8LA16 1-252) MEGIQHPIPRTVEEVFSDFRGRRAGLIKALSTDVQKFYHQCDPEKENLCLYGLPNETWEVNLPVEEVPPELPEPALGINFARDGMQEKDWISLVAVHSDSWLISVAFYFGARFGFGKNERKRLFQMINDLPTIFEVVTGNAKQSKDQSANHNSSRSKSSGGKPRHSESHTKASKMSPPPRKEDESGDEDEDDEQGAVCGACGDNYGGDEFWICCDACEKWFHGKCVKITPAKAEHIKHYKCPSCTTSKKMKA	–	–	–	binds
ACTIN-RELATED PROTEIN 6 (ARP6), endogenous (protein, UniProt Q8LGE3 1-421) MSNIVVLDNGGGLIKAGQGGERDPTTVIPNCLYKPLSSKKFIHPSPLTTLSDEIDLTSAAVRRPIDRGYLINSDLQREIWSHLFTSLLHIAPSSSSLLLTEAPLSIPSVQRTTDELVFEDFGFSSLYIAHPQSLVHLYEASRQPDSILSKTQCSLVVDCGFSFTHAVPVLHNFTLNHAIKRIDLGGKAFTNYLKELVSYRSINVMDETFLVDDAKEKLCFVSLDLLRDLRLARNGNTLIKSTYVLPDGVTHTKGYVKDPQAAKRFLSLSEKESVVVMDKVGERKKADMNKNEIDLTNERFLVPETLFQPADLGMNQAGLAECIVRAINSCHSYLQPVLYQSIILTGGSTLFPQLKERLEGELRPLVPDHFDVKITTQEDPILGVWRGGSLLASSPDFESMCVTKAEYEELGSARCRRRFFH	binds	–	binds	–

Continued, values first:

binding (MBD9-9xMYC (Arabidopsis))	binding [1]	binding [2]	binding (ARP6-9xMYC (Arabidopsis))	Molecule
binds	binds	binds	binds	RuvB-like protein 2 (from UniProt Q9FJW0)
binds	no binding	binds	no binding	CHR17 (from UniProt F4JY24 1-1069)
binds	binds	binds	binds	PHOTOPERIOD-… EARLY FLOWERING 1 (from UniProt Q7X9V2 1-2055)
–	binds	–	binds	methyl-CpG-binding domain 9 (MBD9), endogenous (from UniProt Q9SGH2 1-2176)
binds	no binding	binds	no binding	CHR11 (from UniProt Q8RWY3 1-1056)
binds	binds	binds	binds	RuvB-like protein 1 (from UniProt Q9FMR9 1-458)
binds	binds	binds	binds	SWR1 complex subunit 4 (protein, UniProt Q8VZL6 1-441) MGGTDAKDILGLPKTPLSLTQEKKSRPQKESHRKPDGISREVYALTGGVAPLMPSIDLKRRPPADEKVAWKWLSFTNSARKDDLQLYHWVRVVNDVPPTGDYSFAKYNKSVDILKYTDEEYENHLTDSVWTKEETDQLFEFCQNFDLRFVVIADRFPVSRTVEELKDRYYSVNRALLRARAQSPADVANHPLMKEPYDITRDRERKRALSMVLSQSRHQEKKDAEILAEAKRITEMRLAARRAEEPDVSANENAGLDKADGVVPGRSVSPTSNSQLPATAVAPSTLTMADYASTLASLRMLHVYLRTYGLEQMVQAASSAVGLRTIKRVEQTLQDLGVNLKPKVPTKTVCDEHLELRKEILTLLNLQKQLQYKESEGSSHREGSYAAMPDTPKDRVFAPDPFSFGAERPIKKEQKRKGPGRQADTPSPAHKRPRKLKASDL
binds	binds	binds	binds	YAF9A (protein, UniProt Q9FH40 1-268) MTNSSSSKKQAQDQPETSEPTLKSLKTKMTKSDEKQKKLKDIEISVPIVYGNVAFWLGKKASEYQSHKWAVYVRGATNEDISVVVKKVVFQLHSSFNSPTRVIEEPPFEVSESGWGEFEIAMTLHFHSDVCDKPLSLYHHLKLYPEDESGPLTMKKPVVVESYDEIVFPDPSESFLARVQNHPALTFPRLPSGYNLPAPMQVEDTGKKKRGDTKDHSLGQWFMSFSEADELLQLAAARQQVQAHIAKLRRQISLLEGQNQTVKTGSDL
binds	binds	–	binds	SWR1 complex subunit 2 (protein, UniProt F4IP06 1-365) MEIDEEEPMVFLDRTTRATRGKRMTKLLDDEVEEDEQFWNQEALKEEEHDDEYEAEREVADEFDSDFNDDEPEPDAVAVNEKELRDLPKKRLIYPGKTASKKKKKKTKVVSQLEYIPGDEKPGEELGNKEQEEKEENEAQEDMEGEKVIRKSTRTSVVVRQAERDALRAAIQATTKPIQRKKVGEEKRMTQEEMLLEAAQTEIMNLRNLERVLAREEEVKKKAIVHKAVYKGPQIRYHSKDGCNYLEFCNGASFNSELSTKSVPYPEKAVCVITGLPAKYRDPKTGLPYATRDAFKAIRERFMDEHDGLRKKMEMGDLFDTLVAKGFATKQKRTKIPKSNKSFSLRSSARFLSSESEEESEEDSD
binds	binds	–	binds	SERRATED LEAVES AND EARLY FLOWERING (protein, UniProt Q9FHW2 1-171) MEEEMSNRRVSNRTRKVATKMAAALTSNDNRTQAAIARLEALENDNGAIEVIDLNDDEEASLDEDDDLGYLQKKQHKGSKRKTRQAKALEARKAPKSFLELLQEANLESLPSHVPTYLKAAVGPPSSSSRRYFCSVCGYIAGYNCCLCGMRFCSIRCQNIHKDTRCQKFVA

Results are given in words; binding and its absence hold for the method and conditions named. Binding seen in cells or lysates may run through a third protein. These calls come from enrichment with a bait or labelling near it, and not all partners need be listed. For some of these results: No binding means not detected with the bait. For some of these results: Where a sequence is shown, tags or fusion partners need not be part of it.
